The target in one assay is T1, Mic60-Myc (human) (UniProt Q16891).
T1 sequence: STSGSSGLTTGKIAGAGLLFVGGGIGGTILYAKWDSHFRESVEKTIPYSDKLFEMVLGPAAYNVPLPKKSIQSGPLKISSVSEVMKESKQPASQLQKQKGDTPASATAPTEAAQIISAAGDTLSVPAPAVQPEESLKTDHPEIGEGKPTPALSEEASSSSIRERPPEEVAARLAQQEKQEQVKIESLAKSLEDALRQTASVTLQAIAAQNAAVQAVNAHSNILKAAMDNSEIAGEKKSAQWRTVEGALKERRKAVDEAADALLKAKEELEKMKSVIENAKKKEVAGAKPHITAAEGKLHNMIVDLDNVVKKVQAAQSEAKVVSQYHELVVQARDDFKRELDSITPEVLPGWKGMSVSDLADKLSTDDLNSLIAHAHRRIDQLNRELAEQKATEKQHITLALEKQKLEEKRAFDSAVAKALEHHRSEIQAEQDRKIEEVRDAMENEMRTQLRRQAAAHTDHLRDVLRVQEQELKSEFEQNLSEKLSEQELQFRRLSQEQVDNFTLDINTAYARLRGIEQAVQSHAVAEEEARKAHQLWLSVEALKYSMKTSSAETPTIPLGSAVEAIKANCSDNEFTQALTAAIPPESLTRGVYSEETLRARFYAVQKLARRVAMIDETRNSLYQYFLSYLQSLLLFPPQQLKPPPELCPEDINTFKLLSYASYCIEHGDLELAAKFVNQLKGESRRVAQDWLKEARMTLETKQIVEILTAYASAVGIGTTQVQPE
The assay is described as follows: co-IP; lysates of HEK293T cells transfected with Mic60-Myc and TFAM-HA or TFB2M-HA; IP with antibodies to c-Myc or HA; extraction buffer 10 mM Tris-HCl pH 7.5, 150 mM NaCl, 1 mM EDTA, 0.5% NP-40, 1 mM DTT; immunoblot. On the technique in general: A western blot detects proteins with antibodies after separation by electrophoresis.

The target of assay [1] is T2, endogenous Mic60 (human (endogenous in HEK293T)) (UniProt Q16891).
T2 sequence: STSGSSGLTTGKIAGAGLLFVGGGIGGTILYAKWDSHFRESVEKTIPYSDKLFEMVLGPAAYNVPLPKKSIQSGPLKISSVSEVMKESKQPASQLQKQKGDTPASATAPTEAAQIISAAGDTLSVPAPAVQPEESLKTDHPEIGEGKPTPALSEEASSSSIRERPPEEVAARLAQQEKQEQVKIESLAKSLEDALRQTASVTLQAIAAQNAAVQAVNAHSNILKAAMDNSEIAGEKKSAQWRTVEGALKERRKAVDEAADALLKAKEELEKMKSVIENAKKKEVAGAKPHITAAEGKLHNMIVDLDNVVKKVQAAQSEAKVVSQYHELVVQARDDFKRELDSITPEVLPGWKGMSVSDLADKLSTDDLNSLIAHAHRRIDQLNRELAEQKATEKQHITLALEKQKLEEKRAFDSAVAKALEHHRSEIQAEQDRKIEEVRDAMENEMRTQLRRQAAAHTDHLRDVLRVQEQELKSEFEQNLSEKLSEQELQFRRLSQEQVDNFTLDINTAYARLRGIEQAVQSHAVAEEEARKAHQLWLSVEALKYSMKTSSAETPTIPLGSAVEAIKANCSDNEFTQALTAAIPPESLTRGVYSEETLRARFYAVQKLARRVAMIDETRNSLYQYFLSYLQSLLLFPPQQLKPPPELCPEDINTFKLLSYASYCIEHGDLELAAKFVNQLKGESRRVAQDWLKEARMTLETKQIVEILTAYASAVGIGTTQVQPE
The assay is described as follows: co-IP; endogenous proteins in HEK293T cell lysates; rabbit polyclonal antibody to Mic60; extraction buffer 10 mM Tris-HCl pH 7.5, 150 mM NaCl, 1 mM EDTA, 0.5% NP-40, 1 mM DTT; immunoblot.

These are yes or no findings as the source states them, for the method shown. In cells and extracts the contact can be indirect. Some binding calls cover weakened binding; strength is not graded here. For part of these data: Tags and fused reporters may be left off the sequences shown.

B1: TFAM-HA (protein, UniProt Q00059 43-246)
chain: SSVLASCPKKPVSSYLRFSKEQLPIFKAQNPDAKTTELIRRIAQRWRELPDSKKKIYQDAYRAEWQVYKEEISRFKEQLTPSQIMSLEKEIMDKHLKRKAMTKKKELTLLGKPKRPRSAYNVYVAERFQEAKGDSPQEKLKTVKENWKNLSDSEKELYIQHAKEDETRYHNEMKSWEEQMIEVGRKDLLRRTIKKQRKYGAEEC
In the case of B1, the binding result with Mic60-Myc (human) is reported as “binds”.

B2: endogenous TFAM (protein, UniProt Q00059 43-246)
chain: SSVLASCPKKPVSSYLRFSKEQLPIFKAQNPDAKTTELIRRIAQRWRELPDSKKKIYQDAYRAEWQVYKEEISRFKEQLTPSQIMSLEKEIMDKHLKRKAMTKKKELTLLGKPKRPRSAYNVYVAERFQEAKGDSPQEKLKTVKENWKNLSDSEKELYIQHAKEDETRYHNEMKSWEEQMIEVGRKDLLRRTIKKQRKYGAEEC
Regarding B2, the binding entry in assay [1] is on record as “binds”.

B3: TFB2M-HA (protein, UniProt Q9H5Q4 20-396)
chain: AGRFCILGSEAATRKHLPARNHCGLSDSSPQLWPEPDFRNPPRKASKASLDFKRYVTDRRLAETLAQIYLGKPSRPPHLLLECNPGPGILTQALLEAGAKVVALESDKTFIPHLESLGKNLDGKLRVIHCDFFKLDPRSGGVIKPPAMSSRGLFKNLGIEAVPWTADIPLKVVGMFPSRGEKRALWKLAYDLYSCTSIYKFGRIEVNMFIGEKEFQKLMADPGNPDLYHVLSVIWQLACEIKVLHMEPWSSFDIYTRKGPLENPKRRELLDQLQQKLYLIQMIPRQNLFTKNLTPMNYNIFFHLLKHCFGRRSATVIDHLRSLTPLDARDILMQIGKQEDEKVVNMHPQDFKTLFETIERSKDCAYKWLYDETLEDR
Take B3: the binding result with Mic60-Myc (human) is “binds”.

These data come from paper PMC4303897.
